We go through 3 substances from paper PMC5239482.

Chains of the proteins cited; added tags and fusions are not shown. Residues count along the entry.
UniProt Q03135: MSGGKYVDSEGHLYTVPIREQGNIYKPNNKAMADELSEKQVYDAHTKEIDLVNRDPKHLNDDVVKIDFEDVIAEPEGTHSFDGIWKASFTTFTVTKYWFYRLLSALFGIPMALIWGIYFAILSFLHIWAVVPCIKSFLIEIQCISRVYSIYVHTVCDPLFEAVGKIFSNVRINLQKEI
UniProt P08069, residues 31-1367: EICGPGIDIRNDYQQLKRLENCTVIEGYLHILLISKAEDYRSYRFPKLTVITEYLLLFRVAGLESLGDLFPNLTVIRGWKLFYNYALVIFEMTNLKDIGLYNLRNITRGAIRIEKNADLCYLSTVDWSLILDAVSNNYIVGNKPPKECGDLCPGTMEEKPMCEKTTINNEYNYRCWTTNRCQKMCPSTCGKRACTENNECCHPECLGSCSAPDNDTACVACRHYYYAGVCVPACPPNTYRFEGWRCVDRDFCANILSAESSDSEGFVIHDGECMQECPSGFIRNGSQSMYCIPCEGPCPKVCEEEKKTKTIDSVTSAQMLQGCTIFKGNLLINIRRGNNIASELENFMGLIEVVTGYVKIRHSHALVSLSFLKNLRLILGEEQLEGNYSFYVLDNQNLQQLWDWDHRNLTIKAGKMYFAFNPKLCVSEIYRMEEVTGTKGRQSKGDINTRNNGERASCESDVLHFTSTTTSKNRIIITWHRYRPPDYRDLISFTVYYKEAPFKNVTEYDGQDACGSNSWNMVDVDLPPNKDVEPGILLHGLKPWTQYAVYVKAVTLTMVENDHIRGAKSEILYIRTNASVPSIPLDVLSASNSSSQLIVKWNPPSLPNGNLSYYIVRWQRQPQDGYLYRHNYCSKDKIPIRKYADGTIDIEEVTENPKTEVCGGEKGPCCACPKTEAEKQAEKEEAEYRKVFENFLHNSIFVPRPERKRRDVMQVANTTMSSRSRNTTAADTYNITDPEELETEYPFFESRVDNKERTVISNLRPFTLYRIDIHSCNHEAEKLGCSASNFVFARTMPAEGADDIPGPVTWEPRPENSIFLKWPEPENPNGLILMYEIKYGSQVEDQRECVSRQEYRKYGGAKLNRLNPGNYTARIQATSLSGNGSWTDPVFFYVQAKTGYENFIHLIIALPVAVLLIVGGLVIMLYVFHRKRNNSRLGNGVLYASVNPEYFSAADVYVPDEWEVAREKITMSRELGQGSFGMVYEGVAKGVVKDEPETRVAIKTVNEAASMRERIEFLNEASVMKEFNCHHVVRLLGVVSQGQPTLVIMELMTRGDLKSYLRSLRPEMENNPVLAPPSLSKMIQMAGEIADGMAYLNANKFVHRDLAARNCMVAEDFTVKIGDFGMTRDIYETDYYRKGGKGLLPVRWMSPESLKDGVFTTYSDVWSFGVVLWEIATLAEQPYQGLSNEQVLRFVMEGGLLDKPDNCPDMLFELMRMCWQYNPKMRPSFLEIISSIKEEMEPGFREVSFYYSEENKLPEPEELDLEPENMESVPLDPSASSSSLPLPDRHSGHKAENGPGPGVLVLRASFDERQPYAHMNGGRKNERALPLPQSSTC
UniProt P08047: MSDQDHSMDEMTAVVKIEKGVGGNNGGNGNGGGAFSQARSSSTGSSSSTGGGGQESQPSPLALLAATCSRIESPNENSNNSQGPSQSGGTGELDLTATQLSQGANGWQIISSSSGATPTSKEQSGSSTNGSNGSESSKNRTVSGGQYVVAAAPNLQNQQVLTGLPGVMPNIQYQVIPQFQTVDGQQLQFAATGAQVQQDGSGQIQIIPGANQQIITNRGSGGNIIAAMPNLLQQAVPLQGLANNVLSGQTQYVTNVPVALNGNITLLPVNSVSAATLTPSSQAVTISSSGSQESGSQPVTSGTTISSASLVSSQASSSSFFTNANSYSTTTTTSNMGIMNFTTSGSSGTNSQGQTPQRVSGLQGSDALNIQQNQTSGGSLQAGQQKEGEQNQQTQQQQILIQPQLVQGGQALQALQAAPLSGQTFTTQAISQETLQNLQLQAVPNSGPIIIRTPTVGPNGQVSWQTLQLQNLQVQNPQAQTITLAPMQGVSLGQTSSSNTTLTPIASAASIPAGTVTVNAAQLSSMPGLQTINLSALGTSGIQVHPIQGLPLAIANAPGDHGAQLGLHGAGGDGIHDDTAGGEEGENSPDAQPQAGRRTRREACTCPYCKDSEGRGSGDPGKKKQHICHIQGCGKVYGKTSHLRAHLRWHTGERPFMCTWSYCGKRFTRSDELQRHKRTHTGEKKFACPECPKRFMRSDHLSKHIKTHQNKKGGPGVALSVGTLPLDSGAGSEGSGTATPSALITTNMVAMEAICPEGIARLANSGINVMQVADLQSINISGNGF
UniProt Q96CW1: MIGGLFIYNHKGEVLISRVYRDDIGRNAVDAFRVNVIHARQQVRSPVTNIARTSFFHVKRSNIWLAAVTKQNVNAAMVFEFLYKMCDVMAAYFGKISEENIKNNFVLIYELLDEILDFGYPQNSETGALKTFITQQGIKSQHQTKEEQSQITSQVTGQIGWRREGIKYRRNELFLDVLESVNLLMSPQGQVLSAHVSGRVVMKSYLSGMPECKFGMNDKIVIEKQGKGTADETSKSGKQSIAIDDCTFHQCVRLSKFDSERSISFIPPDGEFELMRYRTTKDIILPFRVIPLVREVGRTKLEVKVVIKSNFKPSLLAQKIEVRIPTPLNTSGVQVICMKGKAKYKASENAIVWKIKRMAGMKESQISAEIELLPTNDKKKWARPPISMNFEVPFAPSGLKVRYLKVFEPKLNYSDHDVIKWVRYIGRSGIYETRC

No constants are given. Whether binding was seen depends on the method and setting. In cells and extracts the contact can be indirect. Some binding calls cover weakened binding; strength is not graded here.

The experiment addresses Caveolin-1, endogenous in VCaP cells (human (endogenous in VCaP)) (UniProt Q03135). The experiment in a line: co-IP; VCaP cell lysates, endogenous proteins; anti-CAV1 (or anti-IgG as control) overnight at 4°C, protein A/G agarose beads, immunoblot. Background: In western blotting, separated proteins are transferred to a membrane and probed.
Take “Insulin-like growth factor-1 receptor, endogenous in VCaP cells (from UniProt P08069 31-1367)”: the binding result was “binds”.
Regarding “Transcription factor Sp1, endogenous in VCaP cells (from UniProt P08047 1-785)”, the binding entry is given as “binds”.
Then “AP-2 complex subunit mu, endogenous in VCaP cells (from UniProt Q96CW1 1-435)”, with “binds”.
